This data set in a line: general procedure: solution-phase peptide synthesis; EDC.HCl/HOBt.
[1] abbreviates: late stage modification step, HCl.

The star is where a group is joined. Pbf = Cc1c(C)c(S(=O)(=O)*)c(C)c2c1OC(C)(C)C2; OtBu = CC(C)(C)O*

Results on 8 substances are retold here after US20150175663 (published 2015).

Ac-R(Pbf)LD(OtBu)LR(Pbf)-OH gave a step yield (late stage modification step, 2H2SO4, 4MsOH, 4HCl) of 95.6% yield.

For Ac-R(Pbf)LD(OtBu)LR(Pbf)LAL-OMe, the step yield (coupling step, from Peptide derivative Ia, 2H2SO4, 4MsOH, 4HCl) was found to be 88% yield.

With “Ac-R(Pbf)LD(OtBu)LR(Pbf)LALR(Pbf)LD(OtBu)LR(Pbf)-NH2”, under “coupling step, from hydrochloric acid salt of Peptide derivative Ib, 2H2SO4, 4MsOH, 4HCl”, the step yield is listed as 58% yield.

As to “Ac-R(Pbf)LD(OtBu)LR(Pbf)LALR(Pbf)LD(OtBu)LR(Pbf)-OMe”, the step yield (coupling step, from Ac-Arg(Pbf)-Leu-Asp(Ot-Bu)-Leu-Arg(Pbf)-Leu-Ala-Leu-OH, 2H2SO4, 4MsOH, 4HCl) came out at 56% yield.

Consider Ac-RLDLRLALRLDLR-NH2, for which the step yield reads like this: (late stage modification step, 2H2SO4) 98% yield; (late stage modification step, 4HCl, run 1) 40% yield.

Where the note is “late stage modification step, 4HCl”, Ac-RLDLRLLLRLDLR-NH2 displayed a step yield of 28% yield.

Substance “Cl^−.H2^+-Arg(Pbf)-Leu-Asp(Ot-Bu)-Leu-Arg(Pbf)-NH2” registered a step yield under setting [1] of 91.2% yield.

Under setting [1], “Cl^−.H2^+-Arg(Pbf)-Leu-Asp(Ot-Bu)-Leu-Arg(Pbf)-OMe” yielded a step yield of 98% yield.
